Measurements published in paper doi:10.64898/2025.12.12.693935.
Results are given in words; binding and its absence hold for the method and conditions named. Some binding calls cover weakened binding; strength is not graded here. Sequences can lack the tags named with a protein.

Target: CADM1-His6 (human) (UniProt Q9BY67)
Experiment: SEC

B1: CADM1-His6 (protein, UniProt Q9BY67 45-442)
chain: QNLFTKDVTVIEGEVATISCQVNKSDDSVIQLLNPNRQTIYFRDFRPLKDSRFQLLNFSSSELKVSLTNVSISDEGRYFCQLYTDPPQESYTTITVLVPPRNLMIDIQKDTAVEGEEIEVNCTAMASKPATTIRWFKGNTELKGKSEVEEWSDMYTVTSQLMLKVHKEDDGVPVICQVEHPAVTGNLQTQRYLEVQYKPQVHIQMTYPLQGLTREGDALELTCEAIGKPQPVMVTWVRVDDEMPQHAVLSGPNLFINNLNKTDNGTYRCEASNIVGKAHSDYMLYVYDPPTTIPPPTTTTTTTTTTTTTILTIITDSRAGEEGSIRAVDHAVIGGVVAVVVFAMLCLLIILGRYFARHKGTYFTHEAKGADDAADADTAIINAEGGQNNSEEKKEYFI
**Q.** Which binding does the source give for B1 here?
**A.** The binding was “binds weakly”.
